The target in this test is Notch1 receptor with a citrine tag at its ECD (Notch1-citrine) (UniProt P46531). The test is described as follows: live-cell trans-endocytosis (TEC) imaging of co-cultured cells; CHO-TetR cells with Notch1-citrine co-cultured 1:1 with CHO-TetR cells with mCherry-tagged ligand variants; spinning disk confocal, 37 °C; images 10 h after induction of ligand expression with 100 ng/mL dox.

Sequences of proteins named here, by UniProt entry; tags and fusion partners are left off. Residues count along the entry.
UniProt P46531, residues 19-2555: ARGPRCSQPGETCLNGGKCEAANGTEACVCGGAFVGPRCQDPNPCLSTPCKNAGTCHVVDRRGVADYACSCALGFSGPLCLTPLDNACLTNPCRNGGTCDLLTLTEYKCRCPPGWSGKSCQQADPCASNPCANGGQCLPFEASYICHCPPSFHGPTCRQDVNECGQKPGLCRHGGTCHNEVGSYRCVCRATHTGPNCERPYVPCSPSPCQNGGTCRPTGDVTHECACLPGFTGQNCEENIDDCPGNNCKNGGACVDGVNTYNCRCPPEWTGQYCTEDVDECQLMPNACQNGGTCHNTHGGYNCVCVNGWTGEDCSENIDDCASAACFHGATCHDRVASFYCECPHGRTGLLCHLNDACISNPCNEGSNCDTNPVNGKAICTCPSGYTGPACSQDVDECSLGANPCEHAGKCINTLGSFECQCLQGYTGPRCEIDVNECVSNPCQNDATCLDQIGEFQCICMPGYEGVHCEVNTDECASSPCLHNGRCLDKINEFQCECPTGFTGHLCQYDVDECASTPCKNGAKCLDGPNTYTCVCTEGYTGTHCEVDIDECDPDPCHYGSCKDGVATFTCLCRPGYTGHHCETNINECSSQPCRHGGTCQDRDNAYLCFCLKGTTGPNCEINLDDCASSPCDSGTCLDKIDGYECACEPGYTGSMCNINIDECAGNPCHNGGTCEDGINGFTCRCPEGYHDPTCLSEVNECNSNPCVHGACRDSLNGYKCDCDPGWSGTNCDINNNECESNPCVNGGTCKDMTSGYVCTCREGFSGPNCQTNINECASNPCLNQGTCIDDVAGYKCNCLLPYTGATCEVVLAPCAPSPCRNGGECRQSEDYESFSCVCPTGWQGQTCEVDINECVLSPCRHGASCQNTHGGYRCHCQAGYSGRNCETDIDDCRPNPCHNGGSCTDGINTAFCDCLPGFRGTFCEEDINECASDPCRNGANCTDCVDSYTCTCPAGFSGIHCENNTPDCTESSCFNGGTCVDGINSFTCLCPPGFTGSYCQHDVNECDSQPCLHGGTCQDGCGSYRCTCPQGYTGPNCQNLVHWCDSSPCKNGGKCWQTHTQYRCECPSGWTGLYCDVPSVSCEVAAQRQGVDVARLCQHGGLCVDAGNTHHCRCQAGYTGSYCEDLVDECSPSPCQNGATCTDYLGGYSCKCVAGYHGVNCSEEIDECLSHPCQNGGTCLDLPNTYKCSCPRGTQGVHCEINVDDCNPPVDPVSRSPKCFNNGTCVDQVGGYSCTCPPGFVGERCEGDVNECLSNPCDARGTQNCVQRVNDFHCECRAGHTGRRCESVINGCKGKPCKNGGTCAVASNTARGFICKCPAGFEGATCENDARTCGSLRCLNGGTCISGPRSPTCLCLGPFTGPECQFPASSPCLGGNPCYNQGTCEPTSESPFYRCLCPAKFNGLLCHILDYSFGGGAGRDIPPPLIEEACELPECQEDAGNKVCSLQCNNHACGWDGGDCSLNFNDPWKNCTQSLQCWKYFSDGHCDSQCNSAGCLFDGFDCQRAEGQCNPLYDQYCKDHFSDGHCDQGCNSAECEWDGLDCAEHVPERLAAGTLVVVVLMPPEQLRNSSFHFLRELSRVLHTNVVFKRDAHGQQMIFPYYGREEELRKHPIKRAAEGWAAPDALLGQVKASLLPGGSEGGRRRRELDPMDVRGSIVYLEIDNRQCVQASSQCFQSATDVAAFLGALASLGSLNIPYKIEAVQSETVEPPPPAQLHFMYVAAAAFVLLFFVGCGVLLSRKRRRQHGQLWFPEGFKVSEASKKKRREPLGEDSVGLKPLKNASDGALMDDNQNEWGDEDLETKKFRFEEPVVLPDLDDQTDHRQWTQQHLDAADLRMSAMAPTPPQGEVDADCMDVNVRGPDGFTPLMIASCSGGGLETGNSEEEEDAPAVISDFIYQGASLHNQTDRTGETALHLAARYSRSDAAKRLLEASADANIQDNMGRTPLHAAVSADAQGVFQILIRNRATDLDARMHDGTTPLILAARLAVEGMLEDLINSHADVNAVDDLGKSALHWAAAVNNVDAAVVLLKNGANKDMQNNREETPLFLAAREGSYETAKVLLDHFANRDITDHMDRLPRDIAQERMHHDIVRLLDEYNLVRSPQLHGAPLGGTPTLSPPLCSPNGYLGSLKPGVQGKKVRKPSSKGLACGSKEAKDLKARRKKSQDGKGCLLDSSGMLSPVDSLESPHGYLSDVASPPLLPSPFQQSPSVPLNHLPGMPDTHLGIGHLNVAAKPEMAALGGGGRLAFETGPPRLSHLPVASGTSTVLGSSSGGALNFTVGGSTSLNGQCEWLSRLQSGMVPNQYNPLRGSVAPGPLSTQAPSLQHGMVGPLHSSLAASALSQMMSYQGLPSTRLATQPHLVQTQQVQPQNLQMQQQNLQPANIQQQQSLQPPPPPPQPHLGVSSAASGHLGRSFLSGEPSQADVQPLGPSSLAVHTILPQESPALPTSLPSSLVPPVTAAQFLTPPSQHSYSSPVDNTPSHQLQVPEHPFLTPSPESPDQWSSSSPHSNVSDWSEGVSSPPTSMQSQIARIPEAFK
UniProt O00548, residues 18-723: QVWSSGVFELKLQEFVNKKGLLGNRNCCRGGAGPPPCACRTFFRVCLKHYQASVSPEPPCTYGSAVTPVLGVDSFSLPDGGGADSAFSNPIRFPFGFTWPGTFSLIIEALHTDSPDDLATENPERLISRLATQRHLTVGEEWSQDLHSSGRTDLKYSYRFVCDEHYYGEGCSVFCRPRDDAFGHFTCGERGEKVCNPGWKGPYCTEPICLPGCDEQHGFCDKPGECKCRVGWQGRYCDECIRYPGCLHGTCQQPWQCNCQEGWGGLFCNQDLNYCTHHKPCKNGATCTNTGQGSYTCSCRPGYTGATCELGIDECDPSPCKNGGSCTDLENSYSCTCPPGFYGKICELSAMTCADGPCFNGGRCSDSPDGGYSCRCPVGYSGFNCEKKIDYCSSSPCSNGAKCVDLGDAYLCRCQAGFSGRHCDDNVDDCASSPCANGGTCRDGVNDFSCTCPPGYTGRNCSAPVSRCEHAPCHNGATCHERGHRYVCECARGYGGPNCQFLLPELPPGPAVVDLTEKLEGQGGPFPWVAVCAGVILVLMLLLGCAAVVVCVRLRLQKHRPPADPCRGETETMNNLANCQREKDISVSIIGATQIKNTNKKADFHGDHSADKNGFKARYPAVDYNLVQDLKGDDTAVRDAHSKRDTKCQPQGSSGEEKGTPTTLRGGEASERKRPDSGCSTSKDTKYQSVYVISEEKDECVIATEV

These are yes or no findings as the source states them, for the method shown. Some results given as binding are weak or reduced against the parent protein; the word gives no strength.

On to “wild type human Dll1 (hDll1) fused to mCherry (from UniProt O00548 18-723) (ligand)”, for which the binding result was “binds”.

These data come from publication PMC9594772.
